These are yes or no findings as the source states them, for the method shown. Binding seen in cells or lysates may run through a third protein. Binding can be weak; no strength is given. One block for each molecule: values may come before it.
What was measured:
c-Abl, kinase-dead (KD) = c-Abl, kinase-dead (KD) (UniProt P00519); assay: co-IP; Mig6 forms and c-Abl forms ectopically coexpressed (HEK293T where named); c-Abl or Mig6 immunopurified, immunoblotting
[1] = molecular target: inactive (kinase-dead) c-Abl kinase domain; assay: as above

Amino acid sequences for entries named in this document (tags omitted). A change or cut given only in a name is not applied to a line headed by its entry.
UniProt P00519: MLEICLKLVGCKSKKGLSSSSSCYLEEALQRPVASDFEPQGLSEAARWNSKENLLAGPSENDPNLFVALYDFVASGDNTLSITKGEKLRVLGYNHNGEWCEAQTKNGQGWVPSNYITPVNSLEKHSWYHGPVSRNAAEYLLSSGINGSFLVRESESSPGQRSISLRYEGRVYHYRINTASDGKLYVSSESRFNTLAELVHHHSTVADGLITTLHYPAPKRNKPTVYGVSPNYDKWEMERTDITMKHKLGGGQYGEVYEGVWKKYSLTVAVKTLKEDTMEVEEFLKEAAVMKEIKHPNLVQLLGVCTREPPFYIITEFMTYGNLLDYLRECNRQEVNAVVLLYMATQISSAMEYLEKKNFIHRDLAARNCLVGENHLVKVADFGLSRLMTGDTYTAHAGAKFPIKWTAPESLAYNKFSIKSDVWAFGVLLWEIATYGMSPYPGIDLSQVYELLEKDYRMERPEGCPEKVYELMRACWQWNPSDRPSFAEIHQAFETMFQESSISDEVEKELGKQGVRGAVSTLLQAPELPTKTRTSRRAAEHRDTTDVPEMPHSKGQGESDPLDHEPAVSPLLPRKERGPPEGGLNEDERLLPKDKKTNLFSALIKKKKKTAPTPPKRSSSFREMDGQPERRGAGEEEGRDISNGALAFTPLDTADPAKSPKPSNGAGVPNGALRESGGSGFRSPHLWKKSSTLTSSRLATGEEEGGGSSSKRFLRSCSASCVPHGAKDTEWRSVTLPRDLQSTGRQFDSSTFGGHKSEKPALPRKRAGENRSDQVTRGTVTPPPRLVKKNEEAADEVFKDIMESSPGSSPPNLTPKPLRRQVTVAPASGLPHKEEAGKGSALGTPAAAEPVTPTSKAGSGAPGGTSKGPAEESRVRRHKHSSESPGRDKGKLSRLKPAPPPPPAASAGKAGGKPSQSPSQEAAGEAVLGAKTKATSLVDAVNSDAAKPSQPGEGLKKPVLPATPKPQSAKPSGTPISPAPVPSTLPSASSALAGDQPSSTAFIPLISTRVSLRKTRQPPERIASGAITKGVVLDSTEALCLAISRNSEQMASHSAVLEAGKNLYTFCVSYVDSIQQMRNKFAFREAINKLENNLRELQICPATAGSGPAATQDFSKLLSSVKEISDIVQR

- binding (c-Abl, kinase-dead (KD)): binds
Molecule: Mig6, wild type, ectopically expressed (from UniProt Q9UJM3 1-462)

- binding [1]: binds
B1: Mig6 Y394/5F (protein, UniProt Q9UJM3 1-462)
chain: MSIAGVAAQEIRVPLKTGFLHNGRAMGNMRKTYWSSRSEFKNNFLNIDPITMAYSLNSSAQERLIPLGHASKSAPMNGHCFAENGPSQKSSLPPLLIPPSENLGPHEEDQVVCGFKKLTVNGVCASTPPLTPIKNSPSLFPCAPLCERGSRPLPPLPISEALSLDDTDCEVEFLTSSDTDFLLEDSTLSDFKYDVPGRRSFRGCGQINYAYFDTPAVSAADLSYVSDQNGGVPDPNPPPPQTHRRLRRSHSGPAGSFNKPAIRISNCCIHRASPNSDEDKPEVPPRVPIPPRPVKPDYRRWSAEVTSSTYSDEDRPPKVPPREPLSPSNSRTPSPKSLPSYLNGVMPPTQSFAPDPKYVSSKALQRQNSEGSASKVPCILPIIENGKKVSSTHFFLLPERPPYLDKYEKFFREAEETNGGAQIQPLPADCGISSATEKPDSKTKMDLGGHVKRKHLSYVVSP

— article PMC3657149, “Mig6 Is a Sensor of EGF Receptor Inactivation that Directly Activates c-Abl to Induce Apoptosis during Epithelial Homeostasis” (Developmental Cell, 2012)
